Structures can show the parent of a compound that is named as a salt. For at least one compound, name, drawing or mass did not settle the structure.
Tested on: rat distal ileal brush border membrane vesicles (active, sodium-dependent 3H taurocholate uptake)
Test: In vitro inhibition of bile acid uptake
Type: biochemical
Settings: 30 seconds at 24° C., versus control active uptake
Procedure: In vitro inhibition of bile acid uptake
Freshly prepared rat distal ileal brush border membrane vesicles (about […] vesicle protein) were incubated for 30 seconds at 24° C. in an incubation mixture comprising […] ^3 H taurocholate, 100 mM NaCl (or KCl) and 80 mM mannitol in 20 mM Hepes Tris pH 7.4. Each test compound was dissolved in ethanol (or water) and then diluted with incubation mixture to an ethanol concentration of not more than 1% v/v. The incubation was terminated by rapid dilution and filtration and the filter washed with an ice-cold isotonic sodium-free buffer.
The uptake of ^3 H taurocholate was measured by the radioactivity remaining on the filter and converted to pmoles/mg vesicle protein. The active, ie sodium-dependent, uptake was obtained by subtracting the passive uptake measured in 100 mM KCl from the total uptake measured in 100 mM NaCl. The active uptake for each test compound was compared with a control active uptake and the results expressed as % inhibition of bile acid uptake.
Data is given below for % inhibition of bile acid uptake at various concentrations of compounds of the invention.

CC[C@@]1(CCCCO)CS(=O)(=O)c2ccccc2[C@H](c2ccccc2)N1 (racemic) [Example 8, (+-)-cis-3-ethyl-2,3,4,5-tetrahydro-3-(4-hydroxybutyl)-5-phenyl-1,4-benzothiazepine 1,1-dioxide hydrochloride]
% inhibition of bile acid uptake (0.3 μM test compound): 19% | % inhibition of bile acid uptake (1 μM test compound, hydrochloride, 1 µM): 31% | % inhibition of bile acid uptake (3 μM test compound, hydrochloride, 3 µM): 51% | % inhibition of bile acid uptake (10 μM test compound, hydrochloride, 10 µM): 70%

CCCC[C@@]1(CC)CS(=O)(=O)c2ccc(O)cc2[C@H](c2ccccc2)N1 (racemic) [Example 10, (+-)-trans-3-butyl-3-ethyl-2,3,4,5-tetrahydro-7-hydroxy-5-phenyl-1,4-benzothiazepine 1,1-dioxide]
% inhibition of bile acid uptake (0.3 μM test compound): 23% | % inhibition of bile acid uptake (1 μM test compound): 41% | % inhibition of bile acid uptake (3 μM test compound): 79% | % inhibition of bile acid uptake (10 μM test compound): 96%

CC[C@]1(CCCCO)CS(=O)(=O)c2ccccc2[C@H](c2ccccc2)N1 (racemic) [Example 9, (+-)-trans-3-ethyl-2,3,4,5-tetrahydro-3-(4-hydroxybutyl)-5-phenyl-1,4-benzothiazepine 1,1-dioxide]
% inhibition of bile acid uptake (1 μM test compound, 1 µM): 15% | % inhibition of bile acid uptake (3 μM test compound, 3 µM): 16% | % inhibition of bile acid uptake (10 μM test compound, 10 µM): 27%

— patent US5723458A, “Hypolipidaemic compounds” (Glaxo Wellcome Inc., priority 1993, dated 1998)
